# Primary screen of a compound library

By UniProt entry, the sequences of proteins in these tests, tags left out.
UniProt I6X8D2, whole entry: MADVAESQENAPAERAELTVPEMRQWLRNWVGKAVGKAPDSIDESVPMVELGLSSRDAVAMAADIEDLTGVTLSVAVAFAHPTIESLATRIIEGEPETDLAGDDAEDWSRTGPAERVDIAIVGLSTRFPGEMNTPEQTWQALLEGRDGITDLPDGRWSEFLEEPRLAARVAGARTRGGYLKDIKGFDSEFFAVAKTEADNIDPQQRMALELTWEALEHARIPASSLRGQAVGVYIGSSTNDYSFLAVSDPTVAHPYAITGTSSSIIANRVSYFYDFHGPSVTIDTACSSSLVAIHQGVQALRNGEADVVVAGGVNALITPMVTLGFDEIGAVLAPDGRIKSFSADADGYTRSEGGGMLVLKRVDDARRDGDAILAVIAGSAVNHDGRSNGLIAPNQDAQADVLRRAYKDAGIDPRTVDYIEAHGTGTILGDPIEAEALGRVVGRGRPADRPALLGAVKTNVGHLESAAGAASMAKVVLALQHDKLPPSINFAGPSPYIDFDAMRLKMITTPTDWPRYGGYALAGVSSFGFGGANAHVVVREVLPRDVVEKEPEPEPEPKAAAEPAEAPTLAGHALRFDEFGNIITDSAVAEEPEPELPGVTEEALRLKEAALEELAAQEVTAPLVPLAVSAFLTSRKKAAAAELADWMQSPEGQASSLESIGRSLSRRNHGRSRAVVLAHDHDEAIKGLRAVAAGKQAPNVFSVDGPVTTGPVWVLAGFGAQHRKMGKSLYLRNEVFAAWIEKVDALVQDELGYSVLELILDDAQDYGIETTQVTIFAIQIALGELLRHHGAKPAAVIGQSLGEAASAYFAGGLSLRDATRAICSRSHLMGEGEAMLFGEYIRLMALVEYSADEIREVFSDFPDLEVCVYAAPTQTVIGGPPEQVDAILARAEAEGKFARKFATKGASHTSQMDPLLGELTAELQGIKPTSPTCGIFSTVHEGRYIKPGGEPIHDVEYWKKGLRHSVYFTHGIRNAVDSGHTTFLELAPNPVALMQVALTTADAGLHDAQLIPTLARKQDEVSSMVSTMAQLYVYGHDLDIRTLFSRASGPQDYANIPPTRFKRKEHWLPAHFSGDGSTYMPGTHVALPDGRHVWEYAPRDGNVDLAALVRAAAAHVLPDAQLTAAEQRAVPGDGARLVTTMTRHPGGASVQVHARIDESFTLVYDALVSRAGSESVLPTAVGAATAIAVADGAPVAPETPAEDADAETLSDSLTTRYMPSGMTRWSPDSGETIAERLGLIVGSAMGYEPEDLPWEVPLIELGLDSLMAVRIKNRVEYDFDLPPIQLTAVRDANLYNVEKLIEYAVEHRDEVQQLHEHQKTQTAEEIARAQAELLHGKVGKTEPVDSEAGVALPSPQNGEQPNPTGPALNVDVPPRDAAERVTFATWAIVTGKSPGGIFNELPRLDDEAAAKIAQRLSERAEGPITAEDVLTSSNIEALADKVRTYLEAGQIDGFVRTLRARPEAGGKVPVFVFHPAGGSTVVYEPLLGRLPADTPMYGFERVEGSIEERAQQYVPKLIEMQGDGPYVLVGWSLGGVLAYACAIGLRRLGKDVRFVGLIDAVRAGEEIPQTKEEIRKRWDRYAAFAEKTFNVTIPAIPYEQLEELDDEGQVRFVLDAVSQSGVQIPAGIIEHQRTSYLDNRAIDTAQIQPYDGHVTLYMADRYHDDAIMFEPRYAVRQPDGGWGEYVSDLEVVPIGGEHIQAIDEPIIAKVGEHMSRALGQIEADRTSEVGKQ
UniProt P9WNZ1, whole entry: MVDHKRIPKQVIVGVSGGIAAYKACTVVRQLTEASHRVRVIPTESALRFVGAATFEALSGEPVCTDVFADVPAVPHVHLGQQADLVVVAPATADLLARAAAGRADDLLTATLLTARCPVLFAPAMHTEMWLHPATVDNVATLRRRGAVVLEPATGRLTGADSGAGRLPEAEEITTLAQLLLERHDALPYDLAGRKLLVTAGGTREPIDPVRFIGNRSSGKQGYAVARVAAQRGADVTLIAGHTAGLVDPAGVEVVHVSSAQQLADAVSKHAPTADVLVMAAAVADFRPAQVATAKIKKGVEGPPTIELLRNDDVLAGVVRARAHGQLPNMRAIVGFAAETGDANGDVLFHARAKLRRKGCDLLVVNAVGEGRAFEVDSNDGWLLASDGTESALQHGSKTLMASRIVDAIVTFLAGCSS
UniProt P9WPC5, whole entry: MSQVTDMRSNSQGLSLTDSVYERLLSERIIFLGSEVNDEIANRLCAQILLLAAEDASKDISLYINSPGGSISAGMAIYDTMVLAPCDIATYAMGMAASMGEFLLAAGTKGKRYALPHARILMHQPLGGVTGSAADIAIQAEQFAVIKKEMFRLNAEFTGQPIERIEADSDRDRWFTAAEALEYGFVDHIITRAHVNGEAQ
UniProt P9WPC3, whole entry partner: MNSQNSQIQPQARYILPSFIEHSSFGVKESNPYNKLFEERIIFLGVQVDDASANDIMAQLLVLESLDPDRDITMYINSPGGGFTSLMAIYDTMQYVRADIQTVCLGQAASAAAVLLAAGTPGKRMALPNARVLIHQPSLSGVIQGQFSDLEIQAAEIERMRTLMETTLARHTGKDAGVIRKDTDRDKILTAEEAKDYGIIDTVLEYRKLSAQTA
UniProt P9WFT3, whole entry: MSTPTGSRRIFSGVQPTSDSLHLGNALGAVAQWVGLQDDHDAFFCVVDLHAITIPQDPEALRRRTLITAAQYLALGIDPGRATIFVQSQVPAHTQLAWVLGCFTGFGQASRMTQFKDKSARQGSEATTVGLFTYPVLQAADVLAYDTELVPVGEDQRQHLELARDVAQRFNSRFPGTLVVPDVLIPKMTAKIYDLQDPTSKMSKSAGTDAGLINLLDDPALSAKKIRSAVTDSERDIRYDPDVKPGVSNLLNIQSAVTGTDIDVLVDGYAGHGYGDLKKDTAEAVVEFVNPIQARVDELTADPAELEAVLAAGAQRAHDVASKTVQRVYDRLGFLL

The values are deposited in ChEMBL (CHEMBL3988442, “University of Dundee, Small-Polar-MMV Screening Library” (2021)).

A: 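Polyketide synthase Pks13, Mycobacterium tuberculosis (UniProt I6X8D2). Enzyme assay of the thioesterase domain of polyketide synthase 13; the read-out is not stated. Compounds at 30 µM. Higher reads as stronger inhibition (inferred from which compounds were picked for retests). About 67,000 compounds were tested under these conditions; 0.46% (about 300) showed 50% or more at least once.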
B: 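Assay of Toxoplasma gondii numbers, read through their beta-galactosidase reporter with a colour substrate. Tested at 10 µM. Higher reads as fewer parasites (inferred from which compounds were picked for retests). Of about 67,000 compounds tested this way, about 260 (0.38%) reached 50% or more in at least one test.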
C: 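Coenzyme A biosynthesis protein CoaBC, Mycobacterium tuberculosis (UniProt P9WNZ1). Enzyme assay of CoaBC with a phosphate dye (Biomol Green) read at 650 nm. Concentration: 30 µM. Direction is inferred from only a few compounds that gave an IC50; most scored high, so higher reads as stronger inhibition. Most strong results did not repeat in a second test. Of about 67,000 compounds tested this way, about 40 (0.06%) reached 50% or more in at least one test.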
D: 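Protease assay of ClpP1P2, read by the AMC dye that it sets free. Target: ClpP1P2, Mycobacterium tuberculosis (UniProt P9WPC5 and UniProt P9WPC3). Concentration: 50 µM. Direction is inferred from only a few compounds that gave an IC50; most scored high, so higher reads as stronger inhibition. Most other retested compounds had strongly negative values. Size under these conditions: about 69,000 compounds, about 10 of them at 50% or above in at least one test.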
E: 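Cell assay of Leishmania donovani living inside macrophages; the read-out is not stated. Compounds at 30 µM. The record gives no direction; compounds that gave an IC50 in retests scored well above the rest, so higher reads as stronger inhibition. Size under these conditions: about 69,000 compounds, about 1,000 of them at 50% or above in at least one test.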
F: 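Enzyme assay of tryptophanyl-tRNA synthetase; the read-out is not stated. Target: Tryptophan-tRNA ligase, Mycobacterium tuberculosis (UniProt P9WFT3). Tested at 10 µM. Direction is not recorded; retested compounds ran higher, which suggests that high means inhibition. About 65,000 compounds were tested under these conditions; 0.098% (about 64) showed 50% or more at least once.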

Each number is a percent effect as filed. The record does not define 0% and 100%; most values in the screen are far below 50% and negative numbers occur (in some assays of this library far below -100). This is an unselected part of the compounds tested. Two or more numbers in one place are separate tests of the same structure; such repeats can differ widely. A dash means the value is not listed here; it may have been measured.

Compound | A | B | C | D | E | F
COc1cc(N2CC[C@@H](O)[C@@H]2Cc2ccccc2)ncn1 | 3.63% | -13.82% | 1.014% | 11.93% | 51.86% | -3.743%
O=C(O)C(F)(F)F.[H][C@@]12CCN(Cc3ccoc3)C[C@]1([H])O[C@@H](C(=O)N(C)C)C2 | - | -30.71% | - | - | 20.11% | -
Cc1ccsc1C1CCCCCN1Cc1cn(C)nc1C (centres unmarked) | -2.652% | 30.07% | 3.49% | 6.122% | 24.2% | -1.467%
Cc1csc(CNc2cccc(OCCN3CCCC3)c2)n1 | -24.07% | -2.453% | 2.899% | 1.674% | 29.02% | -5.091%
Cn1ncc2c(=O)[nH]c(CN3CCCC3CCc3ccccc3)nc21 (centres unmarked) | -15.16% | -3.356% | 5.236% | -32.35% | -6.783% | -4.035%
CC(=O)N1CCC2(CCN(CC3CCOC3)C2)CC1 (centres unmarked) | -7.158% | -5.528% | 2.222% | -16.11% | 33.77% | -
COc1cc(CNCC2CN(C3CC3)CCO2)cc(OC)c1.Cl (centres unmarked) | - | 14.56% | - | - | -4.264% | -
O=C(O)C(F)(F)F.O=C(O)C(F)(F)F.[H][C@]12CCN(CC(=O)N(C)C)[C@@]1([H])CC[C@H](COCc1cccnc1)O2 | - | -9.613% | - | - | 38.61% | -
CCc1nc(C)sc1CN1C[C@@H](C)[C@@](C)(O)C1 | -11.37% | -9.169% | 3.641% | -0.8481% | -1.87% | -2.016%
Cc1ncsc1C(=O)NC1CCN(CC(=O)N(C)C(C)(C)C#N)CC1 | -15.29% | -7.47% | -4.508% | -0.1505% | 7.513% | 3.996%
Cc1cc(F)ccc1CN1CCCC2(C1)OCCO2 | -8.347% | 11.34% | 5.176% | -6.881% | 23.13% | -3.377%
COCC(NC1CCN(CC(C)C)CC1)c1ccnn1C (centres unmarked) | -7.856% | 5.766% | 0.4592% | -11.31% | 2.539% | 4.169%
COc1ccc(CC(=O)N2CCCC(n3cc(C)cn3)C2)cc1F (centres unmarked) | -13.57% | -2.171% | 6.649% | 1.539% | 18.83% | -0.5912%
O=C1N(c2ccccc2)Cc2n[nH]c(=O)n21 | 6.939% | -4.964% | -0.7371% | -12.54% | 2.873% | -6.795%
CC(C)CC(=O)NC1CC2(CCN(CCF)CC2)Oc2ccccc21 (centres unmarked) | -22.56% | - | 0.9009% | -11.85% | - | -7.703%
CNC(=O)c1cccc(NC(=O)NCc2ccccc2)c1C | 2.35% | 3.786% | 2.927% | 9.671% | -4.267% | -3.396%
CC(C)n1nc(Cn2cccc2)c2c1CN(C1CCOCC1)C2.O=C(O)C(F)(F)F | - | -2.716% | - | - | 4.681% | -
Cn1nc(C2CC2)cc1C(=O)N1CCC(c2nnsc2S(C)(=O)=O)CC1 | 10.19% | -5.64% | -10.51% | -0.7908% | 16.49% | -9.399%
Cc1ccc(CN2CC[C@H]3C[C@H](C(=O)N(C)C)O[C@H]3C2)cc1 | -12.96% | - | 3.361% | 3.701% | - | 0.8718%
CN(C)CC1CN(Cc2ccc3c(c2)OCO3)Cc2nccn2C1 (centres unmarked) | -5.535% | - | -2.445% | 2.196% | - | 13.33%
O=C1CCCCN1Cc1cccc(NC(=O)N2CCSCC2)c1 | -16.66% | 0.6979% | 10.97% | -5.423% | 6.796% | 5.498%
CCCNc1ncc(-c2cc(C3CC3)nc(N)c2C#N)cn1 | 1.83% | 16.88% | 6.734% | -23.67% | -27.37% | 1.032%
CC1CCCN(CCNC(=O)c2cncnc2C(C)C)C1 (centres unmarked) | -8.172% | -8.84% | -3.797% | -2.268% | 7.443% | -4.36%
COc1ccc(CN2CCO[C@@H]3C[C@@H](C(=O)NC(C)C)C[C@H]32)cc1 | -40.77% | - | 6.129% | 2.061% | - | -3.625%
CCc1nc2n(n1)CC(NCc1noc(-c3ccccc3)n1)CC2 (centres unmarked) | -32.33% | -0.1883% | -1.169% | -28.52% | -3.131% | 1.462%
NCCC(=O)N1CCC2(CC1)CN(C(=O)Cc1cccc(Cl)c1)CCO2 | -16.04% | 6.482% | 2.895% | 2.78% | 13.08% | 0.2593%
O=C(O)C(F)(F)F.O=C1COC2(CCN(CC3CCC3)CC2)CN1c1cncnc1 | - | 36.24% | - | - | -3.839% | -
CN(Cc1nccn1C)C1CCCN(CCCc2ccccc2)C1 (centres unmarked) | 2.473% | 16.06% | 0.3619% | -8.183% | 12.2% | 0.6522%
CCC(=O)N1CCC2(CC1)CN(CCO)Cc1ccccc12 | -10.1% | - | -7.028% | -19.44% | - | 3.457%
O=C(C1CCCC1)N1CC2(CCCN(C3COC3)C2)Cc2ccccc21 (centres unmarked) | 7.602% | -8.358% | 2.895% | -8.987% | 18.49% | -5.964%
COc1ccc(CN2C[C@@H]3CCCO[C@@H]3[C@H](NC(=O)CC3CC3)C2)cc1 | -43.46% | - | 4.886% | -5.331% | - | 0.9764%
Cc1noc(C)c1CN1C[C@@H]2OCCN(Cc3cnn(C)c3)[C@@H]2C1 | -27.76% | - | 10.28% | -10.21% | - | -3.144%
CCOc1ccccc1CC(=O)N1CCCC(c2ncc[nH]2)C1 (centres unmarked) | 1.169% | -25.58% | 5.696% | -3.366% | -14% | 2.583%
Cc1nc(C)n(CC2CN(Cc3ccncc3)Cc3nccn3C2)n1.O=C(O)C(F)(F)F.O=C(O)C(F)(F)F (centres unmarked) | - | -5.159% | - | - | -11.98% | -
COc1ccc(N2CCN(CC(O)c3cc(C)ccc3C)CC2)cc1 (centres unmarked) | -10.58% | -19.81% | 3.038% | 2.992% | 8.291% and 6.457% | -3.34%
Cc1cccc(CN2C(=O)CCC23CCN(Cc2ccoc2)CC3)n1 | 5.16% | -4.215% | -2.353% | -9.277% | 5.716% | -5.307%
O=C(CCN1CCCCO1)NCc1cn2c(n1)SCC2 | -0.7793% | 5.003% | 6.157% | -4.906% | -7.597% | -1.759%
CNS(=O)(=O)CC1CCCN1c1ccc(Br)cn1 (centres unmarked) | -31.43% | 1.935% | -1.739% | 0.01002% | 9.508% | -1.252%
CNC(=O)CN(C)c1cncc(OCC(C)C)n1 | -9.585% | 8.916% | 1.914% | -1.935% | 5.583% | 0.4854%
CC(C)Cc1ncc2c(n1)CN(c1cc(NC3CC3)nc(N)n1)C2 | -23.22% | 1.241% | -4.176% | 9.542% | 16.34% | 1.32%
CCSc1nc(N)c(NC(=O)c2ccc(C)cc2)c(=O)[nH]1 | -23.42% | 7.079% | 3.594% | 7.85% | 9.496% and -16.62% | 1.9%
O=C(O)[C@]12CCCN(Cc3ccco3)C[C@H]1CN(c1ncccn1)C2 | -20.04% | - | -0.6452% | -3.657% | - | -0.6506%
Cc1nc(CN(C)C2CCN(Cc3nc(C4CC4)no3)C2)no1 (centres unmarked) | -6.786% | 1.569% | -1.033% | -7.841% | -2.165% | -0.5735%

The last 4 entries again:

| Compound | A | B | C | D | E | F |
|---|---|---|---|---|---|---|
| `CC(C)Cc1ncc2c(n1)CN(c1cc(NC3CC3)nc(N)n1)C2` | -23.22% | 1.241% | -4.176% | 9.542% | 16.34% | 1.32% |
| `CCSc1nc(N)c(NC(=O)c2ccc(C)cc2)c(=O)[nH]1` | -23.42% | 7.079% | 3.594% | 7.85% | 9.496% and -16.62% | 1.9% |
| `O=C(O)[C@]12CCCN(Cc3ccco3)C[C@H]1CN(c1ncccn1)C2` | -20.04% | - | -0.6452% | -3.657% | - | -0.6506% |
| `Cc1nc(CN(C)C2CCN(Cc3nc(C4CC4)no3)C2)no1` (centres unmarked) | -6.786% | 1.569% | -1.033% | -7.841% | -2.165% | -0.5735% |